Source: PMC6554949, “Arabidopsis thaliana organelles mimic the T7 phage DNA replisome with specific interactions between Twinkle protein and DNA polymerases Pol1A and Pol1B” (BMC Plant Biology, 2019)
No constants are given. Whether binding was seen depends on the method and setting. Some binding calls cover weakened binding; strength is not graded here.

Experiments:
[1] = molecular target: T1, Arabidopsis DNA polymerase 1B (yeast two-hybrid construct of the tri-alanine experiment) (Arabidopsis thaliana) (UniProt Q84ND9); assay: two-hybrid; tri-alanine mutants in pGAD or pGBK transformed into yeast, interaction measured on selective media
T1 sequence: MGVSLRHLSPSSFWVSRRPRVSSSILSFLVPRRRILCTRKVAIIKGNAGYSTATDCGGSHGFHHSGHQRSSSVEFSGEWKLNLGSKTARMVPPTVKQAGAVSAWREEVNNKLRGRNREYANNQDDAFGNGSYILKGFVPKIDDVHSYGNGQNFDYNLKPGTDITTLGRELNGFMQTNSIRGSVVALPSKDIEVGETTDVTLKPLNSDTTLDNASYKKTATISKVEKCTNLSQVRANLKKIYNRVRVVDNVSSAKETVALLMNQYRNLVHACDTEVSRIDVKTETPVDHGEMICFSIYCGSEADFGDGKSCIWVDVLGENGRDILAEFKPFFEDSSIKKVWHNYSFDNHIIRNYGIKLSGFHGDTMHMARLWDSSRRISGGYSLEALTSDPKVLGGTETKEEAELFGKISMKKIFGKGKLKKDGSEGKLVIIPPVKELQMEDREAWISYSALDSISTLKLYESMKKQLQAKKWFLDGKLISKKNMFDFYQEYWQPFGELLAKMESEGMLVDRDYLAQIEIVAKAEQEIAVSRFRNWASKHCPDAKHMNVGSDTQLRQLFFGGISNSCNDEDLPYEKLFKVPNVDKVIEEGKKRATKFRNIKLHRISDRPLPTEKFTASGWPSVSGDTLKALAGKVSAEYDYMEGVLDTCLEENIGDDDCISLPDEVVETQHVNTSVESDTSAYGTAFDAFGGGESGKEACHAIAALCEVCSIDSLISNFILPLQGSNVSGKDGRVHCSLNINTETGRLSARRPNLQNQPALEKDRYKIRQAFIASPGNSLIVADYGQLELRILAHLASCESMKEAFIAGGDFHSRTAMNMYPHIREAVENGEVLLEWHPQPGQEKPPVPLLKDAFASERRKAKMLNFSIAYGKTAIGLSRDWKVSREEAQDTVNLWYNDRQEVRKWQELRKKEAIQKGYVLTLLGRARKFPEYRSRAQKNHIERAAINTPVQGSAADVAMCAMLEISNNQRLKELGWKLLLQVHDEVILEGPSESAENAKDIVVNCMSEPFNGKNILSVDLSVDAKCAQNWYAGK

[2] = molecular target: T2, Arabidopsis DNA polymerase 1A (yeast two-hybrid construct, parent of the tri-alanine mutants) (Arabidopsis thaliana) (UniProt F4I6M1); assay: as above
T2 sequence: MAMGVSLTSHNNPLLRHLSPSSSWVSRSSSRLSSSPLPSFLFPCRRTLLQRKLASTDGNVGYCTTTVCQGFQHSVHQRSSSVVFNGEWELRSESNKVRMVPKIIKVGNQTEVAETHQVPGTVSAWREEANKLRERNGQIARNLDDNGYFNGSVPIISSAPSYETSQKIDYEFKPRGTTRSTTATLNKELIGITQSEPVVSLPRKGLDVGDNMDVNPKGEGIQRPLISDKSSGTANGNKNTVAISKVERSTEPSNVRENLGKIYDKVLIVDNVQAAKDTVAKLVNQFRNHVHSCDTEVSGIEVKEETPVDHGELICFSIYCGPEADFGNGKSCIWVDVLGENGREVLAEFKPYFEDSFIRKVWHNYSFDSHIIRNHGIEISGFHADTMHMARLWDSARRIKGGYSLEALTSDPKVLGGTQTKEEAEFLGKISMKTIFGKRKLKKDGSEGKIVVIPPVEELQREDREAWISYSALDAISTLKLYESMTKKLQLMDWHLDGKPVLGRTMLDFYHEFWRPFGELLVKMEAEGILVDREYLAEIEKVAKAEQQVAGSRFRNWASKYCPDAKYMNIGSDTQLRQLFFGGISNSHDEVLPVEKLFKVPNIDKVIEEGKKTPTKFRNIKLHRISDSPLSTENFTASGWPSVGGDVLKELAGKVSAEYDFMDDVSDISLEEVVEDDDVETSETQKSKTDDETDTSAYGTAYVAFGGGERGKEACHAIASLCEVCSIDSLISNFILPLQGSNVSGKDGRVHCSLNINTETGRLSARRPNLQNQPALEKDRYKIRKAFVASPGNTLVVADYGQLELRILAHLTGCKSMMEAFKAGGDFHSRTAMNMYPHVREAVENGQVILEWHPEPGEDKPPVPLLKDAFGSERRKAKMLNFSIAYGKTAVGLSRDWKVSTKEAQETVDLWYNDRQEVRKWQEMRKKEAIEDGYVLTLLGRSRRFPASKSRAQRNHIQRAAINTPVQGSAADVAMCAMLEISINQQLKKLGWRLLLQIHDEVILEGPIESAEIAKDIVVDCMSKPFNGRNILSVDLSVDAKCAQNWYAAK

binding [1]: binds
binding [2]: binds
B1: Arabidopsis Twinkle DNA primase/helicase (yeast two-hybrid construct, parent of the tri-alanine mutants) (protein, UniProt B5X582 1-709)
chain: MRFLLRLPQIHFRKLSCSMSVLMGSKQFLEFCLLPSFASYPSSPSYSSSRQVSSVSRRFRPVLASRPVSKNSPYYQRTNGLSSYNSIPRVPTPVDTEVEADKRVVLSRLVTLRRKLAEQGVDAENCPPGQHSGLICPTCEGGNSGEKSLSLFIAPDGSSATWNCFRGKCGLKGGVRADGGLASADPIEKVERKITVEGIELEPLCDEIQDYFAARAISRKTLERNRVMQKRIGDEIVIAFTYWQRGELVSCKYRSLTKMFFQERKTRRILYGLDDIEKTSEVIIVEGEIDKLAMEEAGFLNCVSVPDGAPAKVSSKEIPSEDKDTKYKFLWNCNDYLKKASRIVIATDGDGPGQAMAEEIARRLGKERCWRVKWPKKSEDEHFKDANEVLMSKGPHLLKEAILDAEPYPILGLFSFKDFFDEIDAYYDRTHGHEYGVSTGWKNLDNLYSVVPGELTVVTGIPNSGKSEWIDAMLCNLNHSVGWKFALCSMENKVRDHARKLLEKHIKKPFFDADYGRSVQRMSVEEKDEGKKWLNDTFYPIRCEMDSLPSIDWVLERAKAAVLRYGIRGLVIDPYNELDHQRTPRQTETEYVSQMLTKIKRFSQHHSCHVWFVAHPKQLQHWDGGAPNLYDISGSAHFINKCDNGIIVHRNRDENAGPLDLVQIGVRKVRNKVAGQIGDAYLCYDRTTGSYSDSPVTPGMPERRSPKRY
